# Values joined by “and” are separate entries in the source; they are usually repeats but may differ in a detail not shown here. Identical values can stand only once. The name of at least one read-out is uncertain.
# System: Rat Carrageenan-Induced Footpad Edema
# Test: Rat Carrageenan-Induced Footpad Edema Test
# Assay type: in vivo, male Sprague Dawley rats
# Conditions: IV, 5 mg/Kg, footpad volume 3 hours after carrageenan
compound,measurement,value
"COc1cc(C(=O)NS(=O)(=O)c2ccccc2C)ccc1Cc1cn(C(C)C)c2ccc(NC(=O)OC3CCCC3)cc12 [Example 24, Cyclopentyl N-{1-isopropyl-3-[2-methoxy-4-({[(2-methylphenyl)sulfonyl]amino}carbonyl)benzyl]-1H-indol-5-yl}carbamate]",PERCENT INHIBITION,16.28% and 11.3%

# Source: US6500853B1, “Inhibitors of phospholipase enzymes” (Genetics Institute, LLC, priority 1998, dated 2002)
